In PMC5738371:
Results are given in words; binding and its absence hold for the method and conditions named. For some of these results: In cells and extracts the contact can be indirect. Some results given as binding are weak or reduced against the parent protein; the word gives no strength. For some of these results: Tags and fused reporters may be left off the sequences shown. One block for each molecule: values may come before it.

Sequences of proteins named here, by UniProt entry; tags and fusion partners are left off.
UniProt P14713: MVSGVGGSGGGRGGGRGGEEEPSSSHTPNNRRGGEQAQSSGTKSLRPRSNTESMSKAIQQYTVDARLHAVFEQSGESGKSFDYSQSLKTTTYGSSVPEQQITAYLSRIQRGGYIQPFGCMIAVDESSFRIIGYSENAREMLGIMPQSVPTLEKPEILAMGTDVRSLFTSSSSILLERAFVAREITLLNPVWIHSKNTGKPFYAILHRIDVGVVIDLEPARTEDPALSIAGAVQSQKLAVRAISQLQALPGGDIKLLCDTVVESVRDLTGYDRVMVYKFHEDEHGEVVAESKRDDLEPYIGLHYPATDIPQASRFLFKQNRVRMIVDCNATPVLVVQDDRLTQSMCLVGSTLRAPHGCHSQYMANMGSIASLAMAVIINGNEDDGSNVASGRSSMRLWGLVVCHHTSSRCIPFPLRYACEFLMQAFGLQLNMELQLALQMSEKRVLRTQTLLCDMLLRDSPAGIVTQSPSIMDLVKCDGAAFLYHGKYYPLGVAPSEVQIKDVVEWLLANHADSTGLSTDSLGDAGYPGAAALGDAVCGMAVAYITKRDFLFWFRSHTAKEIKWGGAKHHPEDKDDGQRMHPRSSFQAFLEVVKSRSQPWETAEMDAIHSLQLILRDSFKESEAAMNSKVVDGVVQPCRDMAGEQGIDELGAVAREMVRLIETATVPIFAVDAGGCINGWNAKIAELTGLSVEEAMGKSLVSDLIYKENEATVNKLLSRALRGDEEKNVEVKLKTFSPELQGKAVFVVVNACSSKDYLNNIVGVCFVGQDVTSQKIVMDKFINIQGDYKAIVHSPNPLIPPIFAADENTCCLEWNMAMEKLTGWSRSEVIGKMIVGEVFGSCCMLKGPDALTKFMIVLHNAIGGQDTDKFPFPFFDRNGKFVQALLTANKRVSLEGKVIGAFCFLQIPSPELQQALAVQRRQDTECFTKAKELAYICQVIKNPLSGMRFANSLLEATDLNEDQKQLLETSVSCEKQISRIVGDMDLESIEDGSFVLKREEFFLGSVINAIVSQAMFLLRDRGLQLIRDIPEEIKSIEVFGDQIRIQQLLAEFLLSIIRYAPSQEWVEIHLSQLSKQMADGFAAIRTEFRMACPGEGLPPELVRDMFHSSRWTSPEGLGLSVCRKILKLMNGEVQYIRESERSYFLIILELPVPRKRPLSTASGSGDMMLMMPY

Key:
[1] = target: T1, HA-YFP-PCHL (Arabidopsis thaliana) (UniProt O65680); test: co-IP; HA-YFP-PCH1 or HA-YFP-PCHL precipitated with α-GFP antibody on Dynabeads from native extracts of 4-day-old dark-grown seedlings (10 min red light or darkness); endogenous phyB detected with α-phyB; IP buffer 50 mM Tris/HCl pH 7.5, 150 mM NaCl, 0.1% NP-40; preference for phyB Pfr
T1 sequence: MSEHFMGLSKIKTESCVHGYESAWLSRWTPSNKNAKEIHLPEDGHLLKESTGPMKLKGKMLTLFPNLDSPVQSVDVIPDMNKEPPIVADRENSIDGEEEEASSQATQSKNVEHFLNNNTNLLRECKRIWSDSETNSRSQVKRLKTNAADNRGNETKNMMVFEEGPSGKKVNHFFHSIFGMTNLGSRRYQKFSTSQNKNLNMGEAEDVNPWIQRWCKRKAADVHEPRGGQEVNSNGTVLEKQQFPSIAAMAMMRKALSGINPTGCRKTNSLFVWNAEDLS

[2] = target: T2, GAL4-DNA-binding domain fusion of PCHL (Arabidopsis thaliana) (UniProt O65680); test: two-hybrid; phyB-AD co-expressed with BD-PCH1 or BD-PCHL in yeast; media with 20 µM phycocyanobilin; X-Gal filter lift after 48 h at 26 °C in darkness, red or far-red light, and ONPG assay after 10 min red or far-red light; a weak preference for Pfr
T2 sequence: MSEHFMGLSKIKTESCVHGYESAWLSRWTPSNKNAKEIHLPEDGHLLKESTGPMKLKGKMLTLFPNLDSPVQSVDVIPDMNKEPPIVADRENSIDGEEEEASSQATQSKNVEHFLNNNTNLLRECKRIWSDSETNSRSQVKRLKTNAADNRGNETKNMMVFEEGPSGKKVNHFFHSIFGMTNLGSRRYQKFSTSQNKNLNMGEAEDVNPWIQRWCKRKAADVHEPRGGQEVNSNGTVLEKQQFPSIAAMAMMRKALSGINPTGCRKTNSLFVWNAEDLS

[3] = target: phyB expressed in HEK293T cells (Arabidopsis thaliana) (UniProt P14713); test: co-IP; lysates of transfected HEK293T cells given 15 µM phycocyanobilin; anti-GFP microbeads, 2 h at 4 °C protected from light; blots with α-GFP and α-c-Myc (Supplementary Fig. 1c, d)
[4] = target: phyB-GFP (Arabidopsis thaliana) (UniProt P14713); test: co-IP; extracts of seedlings expressing phyB-GFP with c-Myc-mCherry-PCH1 or c-Myc-mCherry-PCHL; IP with α-GFP antibody on Dynabeads, blots with α-c-Myc and α-GFP; IP buffer 50 mM Tris/HCl pH 7.5, 150 mM NaCl, 0.1% NP-40 (Supplementary Fig. 1b)

binding [3]: binds
B1: PCHL expressed in HEK293T cells (protein, UniProt O65680 1-279)
chain: MSEHFMGLSKIKTESCVHGYESAWLSRWTPSNKNAKEIHLPEDGHLLKESTGPMKLKGKMLTLFPNLDSPVQSVDVIPDMNKEPPIVADRENSIDGEEEEASSQATQSKNVEHFLNNNTNLLRECKRIWSDSETNSRSQVKRLKTNAADNRGNETKNMMVFEEGPSGKKVNHFFHSIFGMTNLGSRRYQKFSTSQNKNLNMGEAEDVNPWIQRWCKRKAADVHEPRGGQEVNSNGTVLEKQQFPSIAAMAMMRKALSGINPTGCRKTNSLFVWNAEDLS

binding [4]: binds
B2: c-Myc-mCherry-PCHL (protein, UniProt O65680 1-279)
chain: MSEHFMGLSKIKTESCVHGYESAWLSRWTPSNKNAKEIHLPEDGHLLKESTGPMKLKGKMLTLFPNLDSPVQSVDVIPDMNKEPPIVADRENSIDGEEEEASSQATQSKNVEHFLNNNTNLLRECKRIWSDSETNSRSQVKRLKTNAADNRGNETKNMMVFEEGPSGKKVNHFFHSIFGMTNLGSRRYQKFSTSQNKNLNMGEAEDVNPWIQRWCKRKAADVHEPRGGQEVNSNGTVLEKQQFPSIAAMAMMRKALSGINPTGCRKTNSLFVWNAEDLS

Continued, molecule first:

Molecule: endogenous phyB (from UniProt P14713 1-1172) (receptor)
binding [1]: binds

Molecule: phyB-GAL4-activation domain fusion (from UniProt P14713 1-1172) (receptor)
binding [2]: binds
